Values are relative to the signal before dosing, not to a vehicle control; the signal also falls without drug.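 Fibroblast labels name human fibroblasts: mostly primary ones from tissues such as uterus (C12385, HUF), lung (H6013), bone (Hs27A), adrenal (HADF) and skin (WS1), plus mammary HMF and breast cancer-associated Hs343T. The cancer cells are basal-like or mesenchymal-like triple-negative breast cancer lines. The paper calls a changed response a hit when it shifts by more than 3x the replicate standard deviation. The tissue of the other fibroblasts is not given here.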
System: MDAMB468
Assay: relative JC-1 red fluorescence (viability) vs pre-drug, coculture with fibroblast (fraction); higher = more viable cancer cells
Conditions: 1 µM
Procedure: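 JC-1 labelled TNBC cells cocultured 1:1 (1,500 cells each) with CellTrace Violet stained primary or stromal fibroblasts in 384-well plates in FluoroBrite medium, treated with one of 42 anticancer drugs at 0.1, 1, 10 or 100 uM. JC-1 red fluorescence (mitochondrial integrity in cancer cells only) was read by plate reader every 8 h for 72 h. Values are normalised to each well's pre-drug value. The stock of one drug was tenfold lower, so its dose labels may be too high.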

Nc1ccn([C@@H]2O[C@H](CO)[C@@H](O)C2(F)F)c(=O)n1 [Gemcitabine]
relative JC-1 red fluorescence
Conditions	40 h	48 h	56 h	64 h	72 h
coculture fibroblast: C12385	–	0.6815	0.6264	0.6086	0.5958
coculture fibroblast: H6013	–	0.709	0.672	0.67	0.609
coculture fibroblast: H6019	–	0.55	0.491	0.453	0.424
coculture fibroblast: H6076	–	0.694	0.63	0.609	0.661
coculture fibroblast: H6231	–	0.663	0.6	0.579	0.574
coculture fibroblast: HADF	–	0.755	0.702	0.692	0.628
coculture fibroblast: HCFa	–	0.662	0.604	0.569	0.5
coculture fibroblast: HCPF	–	0.69	0.642	0.608	0.593
coculture fibroblast: HHSteC	0.718	0.716	0.654	0.639	0.568
coculture fibroblast: HMF	0.68	0.66	0.6	0.575	0.547
coculture fibroblast: HPFa	0.681	0.661	0.59	0.562	0.484
coculture fibroblast: HUF	0.621	0.587	0.519	0.498	0.477
coculture fibroblast: Hs5	0.717	0.672	0.6	0.554	0.568
coculture fibroblast: Hs27A	0.753	0.748	0.714	0.71	0.6469
coculture fibroblast: Hs343T	0.721	0.674	0.583	0.534	0.502
coculture fibroblast: WS1	0.597	0.55	0.512	0.483	0.472

Source: the supplement of paper PMC6078165
